PubChem BioAssay AID1259317, Drosophila RNAi Screening Center | 2017
Here is one part, drawn at random, of 418 reagents. In the full data, 34 (8.1%) were called active. 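Hits are two-sided: raised or lowered ATP both count; higher z-score means more ATP and more surviving cells.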 The numbers tell different reagents against one gene apart. No sequences are given here. Not given: the amount of reagent.

- Aim: 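Membrane and organelle genes affecting manganese toxicity, judged by cellular ATP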 (primary screen)
- Cell system: Drosophila S2R+ cells
- Knock-down reagent: long dsRNA against Drosophila genes
- Time to read-out: 5 days (4 days knockdown, then 1 day metal)
- Treatment: manganese chloride added to 15 mM final for 1 day
- Measurement: 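Viability read as luminescent ATP after knockdown plus a day in 15 mM manganese chloride; z-score of the mean of three replicate plates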
- Direction: mean z-score, 3 replicates: higher = more ATP, more surviving cells under manganese
- Rule for the call: 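Active calls require an absolute mean z-score greater than 1.5, in either direction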
- Calls: active = hit: z-score beyond ±1.5 (ATP up or down); inactive = not a hit

| predicted target | dsRNA no. | mean z-score, 3 replicates | call |
| --- | --- | --- | --- |
| Vha68-1 | 1 | -0.205 | inactive |
| Vha68-1 | 2 | -1.02 | inactive |
| Vha68-1 | 3 | 1.85 | active |
| ScpX | 1 | 1.8 | active |
| CG3961 | 1 | 1.37 | inactive |
| CG3961 | 2 | -0.557 | inactive |
| CG3961 | 3 | 1.98 | active |
| Xpd | 1 | 0.114 | inactive |
| Xpd | 2 | 1.38 | inactive |
| Xpd | 3 | -0.0525 | inactive |
| VhaM9.7-b | 1 | 0.728 | inactive |
| VhaM9.7-b | 2 | 1.04 | inactive |
| mv | 1 | -0.94 | inactive |
| mv | 2 | 0.218 | inactive |
| mv | 3 | -0.155 | inactive |
| fdl | 1 | -0.191 | inactive |
| fdl | 2 | 0.462 | inactive |
| CG9577 | 1 | -0.762 | inactive |
| CG9577 | 2 | 0.0683 | inactive |
| LManIII | 1 | 2.09 | active |
| LManIII | 2 | -0.372 | inactive |
| LManIII | 3 | 1.11 | inactive |
| CG6638 | 1 | 2.16 | active |
| CG6638 | 2 | 1.46 | inactive |
| Ids | 1 | 0.283 | inactive |
| CG7402 | 1 | -0.532 | inactive |
| Pex19 | 1 | 0.348 | inactive |
| CG10194 | 1 | 0.258 | inactive |
| Pex2 | 1 | -0.209 | inactive |
| Pex2 | 2 | -0.0276 | inactive |
| cathD | 1 | 0.78 | inactive |
| Mpv17 | 1 | -0.473 | inactive |
| Mpv17 | 2 | -0.434 | inactive |
| Gga | 1 | -1.25 | inactive |
| Gga | 2 | -0.318 | inactive |
| or | 1 | 1.56 | active |
| or | 2 | 1.25 | inactive |
| or | 3 | -0.538 | inactive |
| JhI-21 | 1 | -0.244 | inactive |
| JhI-21 | 2 | 1.09 | inactive |
| Mpcp2 | 1 | -0.928 | inactive |
| Mpcp2 | 2 | -1.06 | inactive |
| g | 1 | 0.328 | inactive |
| g | 2 | 1.02 | inactive |
| ZnT63C | 1 | -0.287 | inactive |
| ZnT63C | 2 | 0.502 | inactive |
| ZnT63C | 3 | 0.509 | inactive |
| Mfe2 | 1 | -0.723 | inactive |
| Gba1b | 1 | 0.837 | inactive |
| beta-Man | 1 | 1.45 | inactive |
| beta-Man | 2 | -1.35 | inactive |
| Vha26 | 1 | 1.1 | inactive |
| Vha26 | 2 | -0.98 | inactive |
| Vha26 | 3 | 0.516 | inactive |
| Parp1 | 1 | 0.19 | inactive |
| Parp1 | 2 | 0.454 | inactive |
| Parp1 | 3 | -0.329 | inactive |
| Agps | 1 | -0.53 | inactive |
| Agps | 2 | 0.359 | inactive |
| Agps | 3 | -0.809 | inactive |
| Vps36 | 1 | -1.13 | inactive |
| Vps36 | 2 | -0.575 | inactive |
| Npc1b | 1 | -0.281 | inactive |
| Npc1b | 2 | -0.88 | inactive |
| Npc1b | 3 | -0.275 | inactive |
| Sod2 | 1 | 0.032 | inactive |
| Sod2 | 2 | -0.393 | inactive |
| Vha100-1 | 1 | 0.481 | inactive |
| Vha100-1 | 2 | -0.446 | inactive |
| Vha100-1 | 3 | -0.499 | inactive |
| Gnpat | 1 | -0.0894 | inactive |
| Gnpat | 2 | -0.806 | inactive |
| CG12355 | 1 | 0.24 | inactive |
| CG12355 | 2 | 0.581 | inactive |
| mei-9 | 1 | 0.0411 | inactive |
| Vps24 | 1 | -0.695 | inactive |
| Vps24 | 2 | -0.0156 | inactive |
| Vps24 | 3 | 1.27 | inactive |
| CG15533 | 1 | 1.02 | inactive |
| CG15533 | 2 | -0.441 | inactive |
| CG12672 | 1 | -0.456 | inactive |
| Abcd3 | 1 | -0.13 | inactive |
| Abcd3 | 2 | 0.00831 | inactive |
| Abcd3 | 3 | 0.502 | inactive |
| Coprox | 1 | -0.635 | inactive |
| Coprox | 2 | 0.0529 | inactive |
| Vps25 | 1 | -0.71 | inactive |
| Vps25 | 2 | -0.116 | inactive |
| Vps25 | 3 | -1.32 | inactive |
| Hacl | 1 | -0.122 | inactive |
| Hacl | 2 | -0.0309 | inactive |
| Pex12 | 1 | -0.171 | inactive |
| Pex12 | 2 | -0.66 | inactive |
| AP-1mu | 1 | 0.85 | inactive |
| AP-1mu | 2 | 1.19 | inactive |
| Npc2f | 1 | 0.791 | inactive |
| Pex11c | 1 | -0.448 | inactive |
| ClC-a | 1 | -0.0533 | inactive |
| ClC-a | 2 | 1.5 | active |
| ClC-a | 3 | -0.00716 | inactive |
| sbm | 1 | -1.25 | inactive |
| sbm | 2 | -1.01 | inactive |
| rb | 1 | 0.0618 | inactive |
| rb | 2 | -0.699 | inactive |
| CG12268 | 1 | -0.863 | inactive |
| CG12268 | 2 | 0.236 | inactive |
| Vps13B | 1 | 2.29 | active |
| Vps13B | 2 | -1.08 | inactive |
| Had2 | 1 | 0.388 | inactive |
| Had2 | 2 | 2.69 | active |

Individual results from the entries so far:
Coprox #2, mean z-score, 3 replicates → 0.0529
For “call”, JhI-21 #2 is entered as inactive
Vha26 #3, call → inactive
Pex12 #1, call = inactive
beta-Man #1, mean z-score, 3 replicates: 1.45
Value for Mfe2 in “mean z-score, 3 replicates”: -0.723
